# Laboratory results as given in patent publication US10066004B2 (ARIZONA CANCER THERAPEUTICS, LLC, priority 2010, dated 2018).
# At least one peptide structure holds a part that was inferred or is arguable (an end, a ring closure or a residue). No end group written: not given here.
# System: MMTV-pyMT murine model of breast cancer
# Test: Tumor growth and lung metastasis in MMTV-pyMT transgenic mice
# Assay type: in vivo, mouse
# Procedure: (a) MMTV-PyMT mice were allowed to develop tumors of 50 mm^3 before being treated once daily (i.p. injection) with indicated doses of Ctrls (20 μg/g CP5 (n=3), PBS (n=2)) and EJ1 (10 μg/g (n=6), 15 μg/g (n=1), and 20 μg/g (n=7), or twice-daily doses of 40 μg/g (n=3)). Peaks represent average total tumor burden growth rate in mm^3 per day for each treatment. Error bars, mean±SD. *P<0.05; **P<0.005, Student's t-test. (b) Control (12 mice (20 μg/g CP5 (n=5), PBS (n=7), n=100 tumors) vs. 20 μg/g EJ1-treated (eight mice, n=72 tumors) individual tumor growth rates and representative tumor images (insets). Mean denoted by horizontal line. **P<0.005, Student's t-test. (c) Mice were treated with 10, 15, or 20 μg/g body weight EJ1 or control for 21 days and tumors were measured twice weekly. Box plots are shown for day 0 (10 μg/g EJ1: n=6 mice, 21 tumors; 15 μg/g EJ1: n=1 mouse, two tumors; 20 μg/g EJ1: n=8 mice, 24 tumors; Ctrls: n=12 mice, 41 tumors) and final day (10 μg/g EJ1: n=6 mice, 46 tumors; 15 μg/g EJ1: n=1 mouse, nine tumors; 20 μg/g EJ1: n=8 mice, 72 tumors; Ctrls: n=12 mice, 100 tumors). Boxes denote median and the second and third quartiles, with whiskers indicating lowest and highest quartiles. Mean values are represented by filled black squares. *P<0.05, Student's t-test. (d) EJ1-(B-B″) and CP (A-A″)-treated tumors from MMTV-PyMT mice were sectioned and imaged by TEM. Representative mitochondria are highlighted in A′-A″ and B′-B″. (e) Control vs. EJ1-treated lung tumor numbers. Mean denoted by horizontal line. **P<0.005, Student's t-test. Representative lung images are also shown. (f) Lysates from treated MMTV-pyMT mice (arranged by increasing tumor growth rate) were separated by SDS-PAGE and immunoblotted for the indicated proteins. Arrow indicates 85-kDa E-cadherin species associated with metastasis.
# We next set out to determine whether EJ1 would function as an antitumor therapy agent in vivo. We tested the peptide on the MMTV-pyMT murine model of breast cancer, which develops synchronous, multifocal mammary tumors in all 10 mammary glands with a multistep progression that resembles human disease. Intraperitoneal delivery of several EJ1 dosages were tested, and 20 μg/g body weight was chosen for further study (FIG. 11a). This dosage of EJ1 (n=8), CP (n=5), or an equivalent volume of PBS (n=7) were then given to tumor-bearing mice, daily, for the course of the study (see “Materials and Methods below”).
# Additionally, many resected EJ1-treated tumors were necrotic in appearance compared with those in controls (FIG. 11b (insets)). […] Importantly, no toxicity from this dose of EJ1 was observed (weight loss, grooming behavior, or gross changes to organs upon necropsy). […] In addition, we observed a 50-60% decrease in doubly phosphorylated form of MAPK/Erk (dpERK) and ˜30% increase in the presence of the apoptotic indicator, cleaved PARP, in EJ1-treated mice (FIG. 11f). […] Several studies have correlated the expression of the soluble 80-kDa form of E-cadherin with ERBB activity, along with the presence of metastasis or an increased metastatic potential. The MMTV-pyMT transgenic mice present with lung metastasis; we therefore evaluated the effects of EJ1 on lung metastasis.
# Tumor studies were performed as described in the study by Bitler et al. and Supplementary Method SM1, online. The number of metastases in the lungs in MMTV-PyMT mice was assessed in control (six mice) and EJ1-(seven mice) treated mice. Lungs from these mice were fixed, sectioned (10-μm thickness), and stained with hematoxylin and eosin, followed by counting of metastatic foci of five individual sections spanning 200 μm/mouse. A more detailed description of these methods can be found in Supplementary Method SM1, online.
sequence,measurement,setting,value
YARAAARQARAFMRRRHIVRKRTLRRLLQERE [EJ1],individual tumor growth rates and average tumor size,"20 μg/g body weight i.p. daily, compared with CP or PBS",significantly reduced
same,average lung metastatic foci,"MMTV-pyMT mice, controls 36",12 metastases/lung
same,ERBB2 protein and phosphorylation,post-study tumor lysates,no significant reductions
same,decrease in doubly phosphorylated MAPK/Erk (dpERK),post-study tumor lysates,50-60%
same,increase in cleaved PARP,post-study tumor lysates,~30%
same,decrease in ERBB1 expression in tumor lysates,"post-study tumor lysates, densitometry",10%
same,expression of ˜80-kDa fragment of E-cadherin,"tumor lysates, relative to CP-treated mice",significant decrease
